Laboratory results reported in US20150110792A1 (Biogen, published 2015).
Results are given in words; binding and its absence hold for the method and conditions named. Some results given as binding are weak or reduced against the parent protein; the word gives no strength.

How the values were obtained:
[1] = biological target: T1, African Green monkey TIM-1 on the kidney cell line CCL-70 (African Green monkey) (UniProt O46598); test: flow cytometry on CCL-70 African Green monkey kidney cells, histograms at four antibody concentrations
T1 sequence (looked up): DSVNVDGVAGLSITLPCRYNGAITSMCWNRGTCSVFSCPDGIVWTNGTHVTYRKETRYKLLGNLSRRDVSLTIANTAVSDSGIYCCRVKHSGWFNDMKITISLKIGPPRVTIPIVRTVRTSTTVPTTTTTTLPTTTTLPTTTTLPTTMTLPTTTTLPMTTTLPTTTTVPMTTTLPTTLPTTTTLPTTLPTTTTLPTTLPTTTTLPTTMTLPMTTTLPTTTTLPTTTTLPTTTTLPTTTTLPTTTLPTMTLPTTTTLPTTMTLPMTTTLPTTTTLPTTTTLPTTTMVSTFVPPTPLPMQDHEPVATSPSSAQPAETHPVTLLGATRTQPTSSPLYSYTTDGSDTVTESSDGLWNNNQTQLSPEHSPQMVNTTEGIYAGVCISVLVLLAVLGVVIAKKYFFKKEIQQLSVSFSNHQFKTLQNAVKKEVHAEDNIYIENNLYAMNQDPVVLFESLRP

[2] = biological target: T1, African Green monkey TIM-1 on the kidney cell line CCL-70 (African Green monkey); test: flow cytometry on African Green monkey CCL-70 cells
[3] = biological target: T1, African Green monkey TIM-1 on the kidney cell line CCL-70 (African Green monkey); test: staining of cells that carry the target, compared across the anti-human TIM-1 panel

Measured: binding

B1: monoclonal antibody ARD5 (antibody, mouse IgG1, kappa, V domains shown)
VH: QVQLQQSGAELVRPGTSVKVSCKASGYVFTNYWIEWIKQRPGQGLEWIGVMNPGSGETTYNEKFKGKATLTADKSSSTAYMQLSSLTSVDSAVYFCARDHDRDYYAMDYWGQGTSVTVSS
VL: EIQMTQSPSSMSASLGDTITITCQATQDIFKNLNWYQQKPGKPPSLLIYYATELAEGVPSRFSGSGSGSDYSLTISNLESEDFAAYYCLQFFEFPFTFGSGTKLEMKR
notes: Murine IgG1/kappa hybridoma antibody (ATCC PTA-12195); also called ARD5.12; muARD5
binds: all assays above
